Results taken from publication PMC11714219.
Results are given in words; binding and its absence hold for the method and conditions named. In cells and extracts the contact can be indirect. Some entries that bind do so weakly or less than the wild type.

T1: Estrogen receptor beta, full length, as in the ER ββ FL CyOFP1-EV biosensor, Q92731
T1 chain: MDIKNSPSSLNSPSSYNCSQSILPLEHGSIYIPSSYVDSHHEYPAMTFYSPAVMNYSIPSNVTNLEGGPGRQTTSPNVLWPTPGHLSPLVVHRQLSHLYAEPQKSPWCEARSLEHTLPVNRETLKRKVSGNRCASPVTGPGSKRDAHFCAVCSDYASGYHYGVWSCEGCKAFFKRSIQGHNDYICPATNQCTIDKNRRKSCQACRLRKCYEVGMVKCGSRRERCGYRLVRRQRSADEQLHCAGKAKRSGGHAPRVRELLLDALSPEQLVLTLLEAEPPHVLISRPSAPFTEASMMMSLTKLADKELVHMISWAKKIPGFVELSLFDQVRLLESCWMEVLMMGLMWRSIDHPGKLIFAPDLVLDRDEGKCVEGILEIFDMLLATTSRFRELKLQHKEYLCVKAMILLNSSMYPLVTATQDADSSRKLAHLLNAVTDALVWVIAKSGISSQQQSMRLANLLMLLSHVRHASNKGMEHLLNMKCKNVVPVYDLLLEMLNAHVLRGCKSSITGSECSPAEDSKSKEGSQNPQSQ

T2: Estrogen receptor beta, full length, as in the ER ββ FL FRET biosensor, Q92731
T2 chain: T1 chain

B1: Estrogen receptor beta, full length, as in the ER ββ FL CyOFP1-EV biosensor, Q92731 1-530 (receptor)
chain: T1 chain
B2: Estrogen receptor beta, full length, as in the ER ββ FL FRET biosensor, Q92731 1-530 (receptor)
chain: T1 chain

Assays:
Details in all cases: remark: other sources report otherwise
[1] = target: T1, Estrogen receptor beta, full length, as …; assay: FRET or BRET; live-cell FRET ratio imaging (FRET/ECFP or FRET/mTurquoise2) on a fluorescence microscope at 37 °C; both partners from one transfected biosensor plasmid; cells starved in 0.5% FBS for 9-12 h; before and after 17β-estradiol (1 nM-10 µM), 4-hydroxytamoxifen (10 µM), other ER ligands (1 µM) or ionomycin (1 µM) pretreatment; cell line of the main panels not stated (LentiX-293T, HEK293A, HeLa, MCF-7 …)
[2] = target: T2, Estrogen receptor beta, full length, as …; assay: FRET or BRET; microplate reader FRET ratio of HEK293A cells transfected with the biosensor, 96-well plates, 37 °C; serial dilution of E2 from 10 µM to 1 pM, read at 1, 6 and 24 h; 72 estrogen analogs at 1 µM for the ER ββ LBD FRET biosensor
[3] = target: T2, Estrogen receptor beta, full length, as …; assay: FRET or BRET; live-cell FRET ratio imaging (FRET/ECFP or FRET/mTurquoise2) on a fluorescence microscope at 37 °C; both partners from one transfected biosensor plasmid; cells starved in 0.5% FBS for 9-12 h; before and after 17β-estradiol (1 nM-10 µM), 4-hydroxytamoxifen (10 µM), other ER ligands (1 µM) or ionomycin (1 µM) pretreatment; cell line of the main panels not stated (LentiX-293T, HEK293A, HeLa, MCF-7 …)

Row | Binder | binding [1] | binding [2] | binding [3]
1 | B1 | binds | – | –
2 | B2 | – | binds | binds
